Measurements: PubChem BioAssay AID330 (DTP/NCI, 2004)
The list is a part of this screen's results and no random one: it gathers tests that were run many times, whatever their T/C, doses with no T/C, and many T/C values between a quarter and a half above the control. Further doses and runs are listed elsewhere. T/C is the treated group as % of the vehicle group. Some doses have a count of surviving animals in place of a T/C: the source files T/C as zero there, which appears to mark a toxic dose or a test without result, not a measured value. Some survivor counts are full or nearly so, which does not show that the dose was tolerated: survival well below the control is almost never listed, so the zero probably covers shortened survival too. Counts of survivors are from the toxicity check (mostly the fifth day) where no day follows; animals may have died later. Schedule codes are those of the source, read here as Q, the interval in days (D) or hours (H), X, the number of doses. Some doses were run more than once; the results are listed from low to high. Where survival is the endpoint, this PubChem deposit counts one and a half times the control or more as active, and values a quarter to a half above the control carry no call in these data; other NCI protocols may use other cut-offs. Some T/C values carry the count of animals alive at the toxicity check (mostly the fifth day); without a count, all were alive then.

Test system: P388 leukemia ip, CD2F1 mice, survival T/C
Test: NCI In Vivo Anticancer Drug Screen. Data for tumor model P388 Leukemia (intraperitoneal) in CD2F1 (CDF1) mice
Details: T/C endpoint: median survival time, higher T/C = longer survival
[1] = dose: 50.0 mg/kg/injection, schedule: Q01DX009 (ip), vehicle: saline with Tween-80
[2] = dose: 240.0 mg/kg/injection, schedule: Q01DX005 (ip), vehicle: saline with Tween-80
[3] = dose: 100.0 mg/kg/injection, schedule: Q01DX009 (ip), vehicle: suspension in saline
[4] = dose: 100.0 mg/kg/injection, schedule: Q01DX001 (ip), vehicle: Klucel (hydroxypropylcellulose) (HPC)
[5] = dose: 200.0 mg/kg/injection, schedule: Q01DX001 (ip), vehicle: Klucel (hydroxypropylcellulose) (HPC)
[6] = dose: 400.0 mg/kg/injection, schedule: Q01DX001 (ip), vehicle: Klucel (hydroxypropylcellulose) (HPC)
[7] = dose: 200.0 mg/kg/injection, schedule: Q01DX005 (ip), vehicle: Klucel (hydroxypropylcellulose) (HPC)
[8] = dose: 30.0 mg/kg/injection, schedule: Q01DX005 (ip), vehicle: saline with Tween-80
[9] = dose: 60.0 mg/kg/injection, schedule: Q01DX005 (ip), vehicle: saline with Tween-80
[10] = dose: 400.0 mg/kg/injection, schedule: Q01DX009 (ip), vehicle: Klucel (hydroxypropylcellulose) (HPC)
[11] = dose: 120.0 mg/kg/injection, schedule: Q01DX005 (ip), vehicle: saline with Tween-80
[12] = dose: 200.0 mg/kg/injection, schedule: Q01DX009 (ip), vehicle: saline with Tween-80
[13] = dose: 200.0 mg/kg/injection, schedule: Q01DX005 (ip), vehicle: saline with Tween-80
[14] = dose: 50.0 mg/kg/injection, schedule: Q01DX009 (ip), vehicle: saline
[15] = dose: 100.0 mg/kg/injection, schedule: Q01DX005 (ip), vehicle: saline with Tween-80

For O=C1c2ccccc2C(=O)c2c1ccc1c2OCO1, the survivor count (dose: 40.0 mg/kg/injection, schedule: Q01DX005 (ip), vehicle: Klucel (hydroxypropylcellulose) (HPC)) was 6 of 6, the survivor count (dose: 80.0 mg/kg/injection, schedule: Q01DX005 (ip), vehicle: Klucel (hydroxypropylcellulose) (HPC)) was 6 of 6 and the survivor count (dose: 160.0 mg/kg/injection, schedule: Q01DX005 (ip), vehicle: Klucel (hydroxypropylcellulose) (HPC)) was 6 of 6.

In the case of COc1ccc(Cc2nncc3ccccc23)cc1OC, the survivor count [1] is reported as 6 of 6.

With CCCCCCCCCSc1nc2ccc(N=Cc3ccccc3O)cc2s1 the survivor count (dose: 100.0 mg/kg/injection, schedule: Q01DX009 (ip), vehicle: Klucel (hydroxypropylcellulose) (HPC)) was 6 of 6.

With COC(=O)C12OCC34C(CC5C(C)=CC(=O)C(O)C5(C)C3C(O)C1O)OC(=O)C(OC(=O)CC(C)C)C24 (configuration not stated) the T/C (dose: 0.5 mg/kg/injection, schedule: Q01DX009 (ip), vehicle: saline + alcohol) was 135 % of control, the T/C (dose: 1.0 mg/kg/injection, schedule: Q01DX009 (ip), vehicle: saline + alcohol) was 135 and 146 % of control and the T/C (dose: 2.0 mg/kg/injection, schedule: Q01DX009 (ip), vehicle: saline + alcohol) was 148 % of control [5 of 6 alive]. For the same compound, the survivor count (dose: 4.0 mg/kg/injection, schedule: Q01DX009 (ip), vehicle: saline + alcohol) was 0 of 6, the survivor count (dose: 4.5 mg/kg/injection, schedule: Q01DX009 (ip), vehicle: saline + alcohol) was 0 of 6 and the survivor count (dose: 9.0 mg/kg/injection, schedule: Q01DX009 (ip), vehicle: saline + alcohol) was 0 of 6. For the same compound, the survivor count (dose: 18.0 mg/kg/injection, schedule: Q01DX009 (ip), vehicle: saline + alcohol) was 0 of 6 and the survivor count (dose: 36.0 mg/kg/injection, schedule: Q01DX009 (ip), vehicle: saline + alcohol) was 0 of 5.

In the case of CCCCOC(=O)C1C2CCC(O2)C1C(N)=O (configuration not stated), the survivor count [2] is reported as 0 of 6.

In the case of CN(C/C=C/CN(C)C(=S)Nc1ccccc1)C(=S)Nc1ccccc1, the survivor count (dose: 12.5 mg/kg/injection, schedule: Q01DX009 (ip), vehicle: suspension in saline) is reported as 6 of 6, the survivor count [3] is reported as 5 of 6 and the survivor count (dose: 200.0 mg/kg/injection, schedule: Q01DX009 (ip), vehicle: suspension in saline) is reported as 5 of 6.

In the case of O=[N+]([O-])c1sccc1SSc1ccsc1[N+](=O)[O-], the survivor count [4] is reported as 6 of 6, the survivor count [5] is reported as 6 of 6 and the survivor count [6] is reported as 6 of 6.

In the case of O=C(CNNC(=O)c1ccncc1)Nc1ccc(S(=O)(=O)c2ccc(NC(=O)CNNC(=O)c3ccncc3)cc2)cc1, the survivor count (dose: 100.0 mg/kg/injection, schedule: Q01DX005 (ip), vehicle: Klucel (hydroxypropylcellulose) (HPC)) is reported as 5 of 5 and 6 of 6.

For CCN1CCn2c(c(COC(=O)NC(C)C)c(COC(=O)NC(C)C)c2-c2ccc(Cl)c(Cl)c2)C1, the T/C (dose: 50.0 mg/kg/injection, schedule: Q01DX009 (ip), vehicle: distilled water + Tween-80) was 133 % of control, the T/C (dose: 75.0 mg/kg/injection, schedule: Q01DX009 (ip), vehicle: distilled water + Tween-80) was 134 % of control and the T/C (dose: 100.0 mg/kg/injection, schedule: Q01DX009 (ip), vehicle: distilled water + Tween-80) was 145 % of control. The T/C (dose: 150.0 mg/kg/injection, schedule: Q01DX009 (ip), vehicle: distilled water + Tween-80) was 142 % of control [5 of 6 alive] and the survivor count (dose: 300.0 mg/kg/injection, schedule: Q01DX009 (ip), vehicle: distilled water + Tween-80) was 3 of 6.

For CCOC(=O)C1=C(C(=O)c2cccc3ccccc23)C(c2ccc([N+](=O)[O-])cc2)C(C(=O)c2cccc3ccccc23)=C(C(=O)OCC)N1, the survivor count (dose: 120.0 mg/kg/injection, schedule: Q01DX005 (ip), vehicle: Klucel (hydroxypropylcellulose) (HPC)) was 6 of 6.

With O=C(O)CNc1ccccc1.[Cu+2] the survivor count (dose: 50.0 mg/kg/injection, schedule: Q01DX001 (ip), vehicle: Klucel (hydroxypropylcellulose) (HPC)) was 2 of 6, the survivor count [4] was 0 of 6 and the survivor count [5] was 0 of 6. The survivor count [6] was 0 of 6.

In the case of O=C(O)c1cc(Br)ccc1OCc1cccc(Cl)c1, the survivor count (dose: 100.0 mg/kg/injection, schedule: Q04DX003 (ip), vehicle: saline with Tween-80) is reported as 5 of 6.

In the case of Cc1ccc(S(=O)(=O)NN=c2c3ccccc3c3nc4ccccc4nc3c3ccccc23)cc1, the survivor count [7] is reported as 6 of 6.

In the case of O=C1C(=O)N(c2ccccc2)C(=O)N1CCN1C(=O)C(=O)N(c2ccccc2)C1=O, the survivor count (dose: 15.0 mg/kg/injection, schedule: Q01DX005 (ip), vehicle: saline with Tween-80) is reported as 6 of 6, the survivor count [8] is reported as 6 of 6 and the survivor count [9] is reported as 6 of 6.

For COC(=O)c1ccc(-c2ccccc2)cc1, the survivor count [10] was 6 of 6.

For COC(=O)NC1C(=O)CCC(=O)C1C(N)=O (configuration not stated), the survivor count [8] was 3 of 6, the survivor count [9] was 0 of 6 and the survivor count [11] was 0 of 6. The survivor count [2] was 0 of 6.

With CC(=O)NCCSSCc1ccccc1CS(=O)O the survivor count (dose: 200.0 mg/kg/injection, schedule: Q01DX005 (ip), vehicle: suspension in saline) was 3 of 6.

For N=c1c(C(=O)OCc2ccccc2)ncc(CCl)n1O, the T/C [1] was 139 % of control, the T/C (dose: 100.0 mg/kg/injection, schedule: Q01DX009 (ip), vehicle: saline with Tween-80) was 139 % of control [5 of 6 alive] and the T/C [12] was 136 % of control.

For CCOC1(OCC)Oc2c(c3ccccc3c3ccccc23)/C1=C1\c2c(c3ccccc3c3ccccc23)OC1(OCC)OCC, the survivor count [13] was 6 of 6.

In the case of COC(=O)CCC1=C(OC)C(=O)C(OC)=CC1=O, the survivor count [12] is reported as 3 of 6.

O=C1CCSC(=S)N1c1ccc(F)cc1F was tested, and the survivor count [14] was 6 of 6, the survivor count (dose: 50.0 mg/kg/injection, schedule: Q01DX009 (ip), vehicle: suspension in saline) was 6 of 6 and the survivor count [3] was 5 of 6.

In the case of [Br][Hg][CH]1CCC2CCCC1O2 (configuration not stated), the survivor count (dose: 50.0 mg/kg/injection, schedule: Q01DX009 (ip), vehicle: Klucel (hydroxypropylcellulose) (HPC)) is reported as 1 of 6.

With OC[P+](CO)(CO)CO the survivor count (dose: 25.0 mg/kg/injection, schedule: Q01DX005 (ip), vehicle: saline with Tween-80) was 3 of 6, the survivor count (dose: 50.0 mg/kg/injection, schedule: Q01DX005 (ip), vehicle: saline with Tween-80) was 0 of 6 and the survivor count [15] was 0 of 6. For the same compound, the survivor count [13] was 0 of 6.

With Nc1ccc2nc3c(N)ccc(N)c3nc2c1 the T/C (dose: 240.0 mg/kg/injection, schedule: Q01DX005 (ip), vehicle: saline) was 137 % of control.

In the case of Nc1[nH]c(=S)[nH]c(=O)c1N=O, the T/C (dose: 12.5 mg/kg/injection, schedule: Q01DX009 (ip), vehicle: saline) is reported as 126 % of control, the survivor count [14] is reported as 5 of 6 and the survivor count (dose: 100.0 mg/kg/injection, schedule: Q01DX009 (ip), vehicle: saline) is reported as 2 of 6. The survivor count (dose: 200.0 mg/kg/injection, schedule: Q01DX009 (ip), vehicle: saline) was 0 of 6.

With COc1ccc(NC(=O)C2C(=O)N(c3ccc(OC)cc3)C(=O)/C2=N/NC(N)=S)cc1 (configuration not stated) the survivor count [15] was 0 of 6 and the survivor count [13] was 0 of 6.

In the case of CCN(CC)CCCC(C)Nc1cc(/C=C/c2ccc(Cl)cc2)nc2ccc(N(C)C)cc12 (configuration not stated), the survivor count [8] is reported as 2 of 6, the survivor count [9] is reported as 1 of 6 and the survivor count [11] is reported as 0 of 6. For the same compound, the survivor count [2] was 0 of 6.

In the case of Fc1ccc(NC(=S)SCc2ccc3c(c2)OCO3)cc1F, the survivor count [10] is reported as 2 of 6.

With C[N+](C)(C)/N=C(/c1ccccc1)C1CCCCC1 the survivor count [4] was 0 of 6, the survivor count [5] was 0 of 6 and the survivor count [6] was 0 of 6.

CCN(CC)CCOC(=O)C(OCCC(C)C)(c1ccccc1)c1ccccc1 was tested, and the survivor count [7] was 1 of 6.

With COC(=O)c1nc(N)nc(C(=O)OC)c1C(=O)c1ccc(OC)cc1 the survivor count (dose: 240.0 mg/kg/injection, schedule: Q01DX005 (ip), vehicle: Klucel (hydroxypropylcellulose) (HPC)) was 0 of 6.
